# US8399696B2, “Functionalized biodegradable triclosan monomers and oligomers for controlled release” (Bezwada Biomedical, LLC, priority 2007, dated 2013)
# At least one structure is not confirmed: it was looked up by name or label, or the drawing left a doubt.
# Experiment: Hydrolysis of 500 mg (0.5 grams) of compound in 50 mL buffer (pH 9 or pH 7) at 50 or 100° C.
# Type: physicochemical
# Conditions: 500 mg in 50 mL pH 9 buffer
# Description: Into a clean and dry 1 liter, 3 necked round bottom flask equipped with a nitrogen inlet was added 15 grams of triclosan in 150 ml of ethyl acetate. 15 ml of pyridine was added to the reaction mixture and the reaction mixture was left for stifling at room temperature for 10 minutes. To this stirring solution was added dropwise 24 grams of stearic acid glycolic acid chloride 27 dissolved in 30 ml of ethyl acetate and the reaction was left for stirring at room temperature for twenty four hours following which the […] salt was filtered off and the ethyl acetate layer was washed with 5% solution of sodium bicarbonate followed by drying using sodium sulphate. Ethyl acetate was distilled off using high vacuum distillation to yield 22 grams of crude 28. […]
compound,measurement,value
"O=C(CCCCCCC(=O)Oc1cc(Cl)ccc1Oc1ccc(Cl)cc1Cl)Oc1cc(Cl)ccc1Oc1ccc(Cl)cc1Cl [Example 12, Octanedioic acid bis-[5-chloro-2-(2,4-dichloro-phenoxy)-phenyl]ester, reference compound]",time to hydrolysis (Hydrolyzed in),This control sample did not hydrolyze even in 48 hours
